Measurements published in publication PMC11335227.
No constants are given. Whether binding was seen depends on the method and setting. In cells and extracts the contact can be indirect. Some entries that bind do so weakly or less than the wild type. Sequences can lack the tags named with a protein.

Molecular target: heart and neural crest derivatives expressed 1 (Hand1), Flag-tagged and HA-tagged copies (mouse) (UniProt Q64279)
Experiment: co-IP; JEG-3 cells co-transfected with HA-Hand1 and Flag-Hand1, treated with or without VC; Western with a Flag antibody

binding: binds
B1: heart and neural crest derivatives expressed 1 (Hand1), Flag-tagged and HA-tagged copies (protein, UniProt Q64279 1-216)
chain: MNLVGSYAHHHHHHHSHPPHPMLHEPFLFGPASRCHQERPYFQSWLLSPADAAPDFPAGGPPPTTAVAAAAYGPDARPSQSPGRLEALGSRLPKRKGSGPKKERRRTESINSAFAELRECIPNVPADTKLSKIKTLRLATSYIAYLMDVLAKDAQAGDPEAFKAELKKTDGGRESKRKRELPQQPESFPPASGPGEKRIKGRTGWPQQVWALELNQ
